Reference: the supplement of paper PMC10849652
The list shows a part of the results.

By UniProt entry, the sequences of proteins in these tests, tags left out. Where a name states a change or a piece, a line headed by the entry shows the natural chain unless it says otherwise.
UniProt Q92615, whole entry, looked up: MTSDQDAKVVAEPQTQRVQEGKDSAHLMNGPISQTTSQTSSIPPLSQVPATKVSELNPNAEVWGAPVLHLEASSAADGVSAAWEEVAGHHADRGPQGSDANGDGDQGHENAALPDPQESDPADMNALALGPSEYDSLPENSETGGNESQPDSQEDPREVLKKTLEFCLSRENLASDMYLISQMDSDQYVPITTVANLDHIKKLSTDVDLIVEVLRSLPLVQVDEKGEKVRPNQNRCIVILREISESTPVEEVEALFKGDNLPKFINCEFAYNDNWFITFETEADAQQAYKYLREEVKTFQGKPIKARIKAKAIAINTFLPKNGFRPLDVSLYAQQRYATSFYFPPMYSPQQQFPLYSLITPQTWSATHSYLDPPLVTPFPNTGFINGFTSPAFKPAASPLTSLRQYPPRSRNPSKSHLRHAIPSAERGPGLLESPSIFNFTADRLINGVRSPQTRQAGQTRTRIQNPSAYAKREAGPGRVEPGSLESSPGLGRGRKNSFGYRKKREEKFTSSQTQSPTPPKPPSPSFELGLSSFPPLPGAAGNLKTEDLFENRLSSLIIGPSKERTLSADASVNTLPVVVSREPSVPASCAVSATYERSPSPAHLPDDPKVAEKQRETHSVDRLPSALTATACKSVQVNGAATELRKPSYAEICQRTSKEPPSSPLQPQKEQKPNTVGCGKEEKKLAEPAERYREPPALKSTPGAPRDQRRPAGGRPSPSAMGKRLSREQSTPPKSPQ
UniProt P01130: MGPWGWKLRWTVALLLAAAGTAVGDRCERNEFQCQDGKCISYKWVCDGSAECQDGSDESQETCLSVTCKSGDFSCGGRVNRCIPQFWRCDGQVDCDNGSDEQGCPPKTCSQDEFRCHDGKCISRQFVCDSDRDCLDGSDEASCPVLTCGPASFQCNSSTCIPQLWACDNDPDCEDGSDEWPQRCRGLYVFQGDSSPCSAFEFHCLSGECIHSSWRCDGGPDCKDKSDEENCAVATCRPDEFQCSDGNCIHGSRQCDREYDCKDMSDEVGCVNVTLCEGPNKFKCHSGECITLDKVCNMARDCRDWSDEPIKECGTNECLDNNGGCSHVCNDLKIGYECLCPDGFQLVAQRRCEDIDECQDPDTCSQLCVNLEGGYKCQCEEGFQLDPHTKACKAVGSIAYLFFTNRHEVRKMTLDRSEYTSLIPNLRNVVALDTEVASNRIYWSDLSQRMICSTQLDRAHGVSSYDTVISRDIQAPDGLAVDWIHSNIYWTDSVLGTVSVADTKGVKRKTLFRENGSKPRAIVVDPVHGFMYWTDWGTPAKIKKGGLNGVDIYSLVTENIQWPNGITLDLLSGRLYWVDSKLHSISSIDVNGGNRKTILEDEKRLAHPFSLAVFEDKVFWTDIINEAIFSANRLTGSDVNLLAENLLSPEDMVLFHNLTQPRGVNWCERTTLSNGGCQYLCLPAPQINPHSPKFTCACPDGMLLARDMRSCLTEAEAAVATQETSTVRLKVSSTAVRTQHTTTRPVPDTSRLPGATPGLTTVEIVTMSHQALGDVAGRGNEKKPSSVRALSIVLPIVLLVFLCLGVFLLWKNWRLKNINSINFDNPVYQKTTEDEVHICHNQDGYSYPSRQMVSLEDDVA
UniProt P09382, whole entry, looked up: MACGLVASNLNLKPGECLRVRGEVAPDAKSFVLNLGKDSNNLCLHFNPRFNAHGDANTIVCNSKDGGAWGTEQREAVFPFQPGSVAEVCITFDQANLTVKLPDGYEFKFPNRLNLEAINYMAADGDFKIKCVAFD
UniProt Q14693: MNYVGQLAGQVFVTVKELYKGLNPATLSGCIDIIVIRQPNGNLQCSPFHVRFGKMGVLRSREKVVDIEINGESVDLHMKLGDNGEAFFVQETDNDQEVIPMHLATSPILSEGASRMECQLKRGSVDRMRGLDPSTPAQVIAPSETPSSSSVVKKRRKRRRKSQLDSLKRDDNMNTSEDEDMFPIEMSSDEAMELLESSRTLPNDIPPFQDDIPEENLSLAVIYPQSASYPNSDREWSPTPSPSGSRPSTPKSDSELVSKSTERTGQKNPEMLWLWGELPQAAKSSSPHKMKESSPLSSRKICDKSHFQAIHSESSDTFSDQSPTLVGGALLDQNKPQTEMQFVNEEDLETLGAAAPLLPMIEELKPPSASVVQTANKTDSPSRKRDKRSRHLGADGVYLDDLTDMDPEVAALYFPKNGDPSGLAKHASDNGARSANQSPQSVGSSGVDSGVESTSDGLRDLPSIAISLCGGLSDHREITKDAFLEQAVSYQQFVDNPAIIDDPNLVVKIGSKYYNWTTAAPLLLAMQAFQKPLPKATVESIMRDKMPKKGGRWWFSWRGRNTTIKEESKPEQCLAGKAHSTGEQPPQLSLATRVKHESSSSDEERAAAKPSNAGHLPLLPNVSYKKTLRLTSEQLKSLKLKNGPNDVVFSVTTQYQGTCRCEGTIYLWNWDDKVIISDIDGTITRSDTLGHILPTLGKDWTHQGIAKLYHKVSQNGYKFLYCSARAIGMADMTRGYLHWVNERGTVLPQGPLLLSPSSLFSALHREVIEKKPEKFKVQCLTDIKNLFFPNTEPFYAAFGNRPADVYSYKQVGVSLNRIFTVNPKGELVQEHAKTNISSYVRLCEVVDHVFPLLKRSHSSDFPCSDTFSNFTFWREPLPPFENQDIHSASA
UniProt Q9C0E8: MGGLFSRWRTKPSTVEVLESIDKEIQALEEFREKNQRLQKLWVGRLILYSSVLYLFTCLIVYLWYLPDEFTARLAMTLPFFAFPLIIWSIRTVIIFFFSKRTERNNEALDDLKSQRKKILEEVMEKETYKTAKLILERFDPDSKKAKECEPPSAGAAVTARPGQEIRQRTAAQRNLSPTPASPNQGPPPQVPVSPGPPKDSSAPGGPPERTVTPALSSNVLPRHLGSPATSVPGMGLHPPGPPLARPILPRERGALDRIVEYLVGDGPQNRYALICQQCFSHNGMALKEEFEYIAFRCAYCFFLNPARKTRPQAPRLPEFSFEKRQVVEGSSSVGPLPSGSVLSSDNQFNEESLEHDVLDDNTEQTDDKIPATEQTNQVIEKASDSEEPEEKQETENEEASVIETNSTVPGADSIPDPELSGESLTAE
UniProt P48357: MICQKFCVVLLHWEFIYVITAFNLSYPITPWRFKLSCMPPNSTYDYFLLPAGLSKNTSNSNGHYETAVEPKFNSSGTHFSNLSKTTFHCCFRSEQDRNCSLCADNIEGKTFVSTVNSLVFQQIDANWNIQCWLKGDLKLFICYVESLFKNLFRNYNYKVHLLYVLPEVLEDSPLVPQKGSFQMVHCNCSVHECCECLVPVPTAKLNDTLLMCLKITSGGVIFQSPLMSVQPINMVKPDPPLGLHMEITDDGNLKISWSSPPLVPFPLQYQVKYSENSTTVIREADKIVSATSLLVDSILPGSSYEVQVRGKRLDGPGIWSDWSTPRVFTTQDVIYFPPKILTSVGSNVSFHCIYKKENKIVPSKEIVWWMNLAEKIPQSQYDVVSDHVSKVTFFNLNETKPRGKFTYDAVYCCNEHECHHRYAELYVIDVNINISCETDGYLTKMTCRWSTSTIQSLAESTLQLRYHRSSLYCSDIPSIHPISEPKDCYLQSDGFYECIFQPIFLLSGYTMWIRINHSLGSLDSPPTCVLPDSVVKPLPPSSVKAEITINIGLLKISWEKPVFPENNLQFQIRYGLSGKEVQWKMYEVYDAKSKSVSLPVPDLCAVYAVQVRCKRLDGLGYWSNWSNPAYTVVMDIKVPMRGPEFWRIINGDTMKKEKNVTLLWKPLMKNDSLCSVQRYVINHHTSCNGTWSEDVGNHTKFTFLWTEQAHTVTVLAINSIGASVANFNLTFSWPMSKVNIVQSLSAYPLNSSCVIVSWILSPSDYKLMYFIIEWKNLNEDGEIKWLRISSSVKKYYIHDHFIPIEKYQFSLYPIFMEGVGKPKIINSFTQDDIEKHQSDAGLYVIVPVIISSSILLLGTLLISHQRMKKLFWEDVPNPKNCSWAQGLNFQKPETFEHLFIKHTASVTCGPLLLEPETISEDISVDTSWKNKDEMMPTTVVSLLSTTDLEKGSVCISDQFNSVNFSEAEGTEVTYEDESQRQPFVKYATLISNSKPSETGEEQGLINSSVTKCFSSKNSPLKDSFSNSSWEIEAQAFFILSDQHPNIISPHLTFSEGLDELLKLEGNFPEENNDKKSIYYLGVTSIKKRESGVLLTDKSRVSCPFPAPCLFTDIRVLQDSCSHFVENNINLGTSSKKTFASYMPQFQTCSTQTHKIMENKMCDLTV
UniProt Q03252: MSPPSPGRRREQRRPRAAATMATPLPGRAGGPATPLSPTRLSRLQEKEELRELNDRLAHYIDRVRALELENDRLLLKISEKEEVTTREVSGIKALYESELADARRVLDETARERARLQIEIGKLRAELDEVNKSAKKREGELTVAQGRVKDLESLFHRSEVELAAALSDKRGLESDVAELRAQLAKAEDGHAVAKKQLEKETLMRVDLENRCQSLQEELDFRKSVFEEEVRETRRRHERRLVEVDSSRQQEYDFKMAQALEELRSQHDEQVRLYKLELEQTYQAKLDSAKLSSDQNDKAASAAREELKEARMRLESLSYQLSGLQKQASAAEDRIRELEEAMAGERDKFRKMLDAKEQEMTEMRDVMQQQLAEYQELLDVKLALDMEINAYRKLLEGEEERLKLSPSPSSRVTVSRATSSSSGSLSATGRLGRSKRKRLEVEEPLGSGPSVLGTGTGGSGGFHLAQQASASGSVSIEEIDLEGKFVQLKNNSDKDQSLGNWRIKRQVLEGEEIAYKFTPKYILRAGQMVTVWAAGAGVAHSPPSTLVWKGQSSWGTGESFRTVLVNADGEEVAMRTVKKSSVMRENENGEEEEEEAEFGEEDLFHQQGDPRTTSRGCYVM
UniProt Q9H6V9: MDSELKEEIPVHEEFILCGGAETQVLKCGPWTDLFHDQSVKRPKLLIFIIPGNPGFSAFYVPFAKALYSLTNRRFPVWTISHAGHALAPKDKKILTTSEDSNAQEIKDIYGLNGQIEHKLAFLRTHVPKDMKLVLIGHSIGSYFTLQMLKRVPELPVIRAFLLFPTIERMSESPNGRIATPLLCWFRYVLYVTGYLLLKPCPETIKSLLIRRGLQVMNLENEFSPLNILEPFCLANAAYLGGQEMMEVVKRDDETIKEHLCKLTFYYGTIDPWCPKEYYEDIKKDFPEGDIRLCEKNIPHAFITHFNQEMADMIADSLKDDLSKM
UniProt Q8NC56: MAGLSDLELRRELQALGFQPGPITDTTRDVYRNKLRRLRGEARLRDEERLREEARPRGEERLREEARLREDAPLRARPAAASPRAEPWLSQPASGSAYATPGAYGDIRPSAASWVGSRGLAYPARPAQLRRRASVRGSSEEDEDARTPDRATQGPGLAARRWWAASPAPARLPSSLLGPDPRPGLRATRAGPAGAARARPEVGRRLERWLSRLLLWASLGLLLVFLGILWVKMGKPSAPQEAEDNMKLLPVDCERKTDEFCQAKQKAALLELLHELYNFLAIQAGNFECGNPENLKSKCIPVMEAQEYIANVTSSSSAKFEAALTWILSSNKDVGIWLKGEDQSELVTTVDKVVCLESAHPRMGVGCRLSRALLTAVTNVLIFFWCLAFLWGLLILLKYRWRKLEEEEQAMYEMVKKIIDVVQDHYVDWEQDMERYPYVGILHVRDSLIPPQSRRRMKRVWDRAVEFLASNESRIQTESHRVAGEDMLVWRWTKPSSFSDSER
UniProt Q9BU23: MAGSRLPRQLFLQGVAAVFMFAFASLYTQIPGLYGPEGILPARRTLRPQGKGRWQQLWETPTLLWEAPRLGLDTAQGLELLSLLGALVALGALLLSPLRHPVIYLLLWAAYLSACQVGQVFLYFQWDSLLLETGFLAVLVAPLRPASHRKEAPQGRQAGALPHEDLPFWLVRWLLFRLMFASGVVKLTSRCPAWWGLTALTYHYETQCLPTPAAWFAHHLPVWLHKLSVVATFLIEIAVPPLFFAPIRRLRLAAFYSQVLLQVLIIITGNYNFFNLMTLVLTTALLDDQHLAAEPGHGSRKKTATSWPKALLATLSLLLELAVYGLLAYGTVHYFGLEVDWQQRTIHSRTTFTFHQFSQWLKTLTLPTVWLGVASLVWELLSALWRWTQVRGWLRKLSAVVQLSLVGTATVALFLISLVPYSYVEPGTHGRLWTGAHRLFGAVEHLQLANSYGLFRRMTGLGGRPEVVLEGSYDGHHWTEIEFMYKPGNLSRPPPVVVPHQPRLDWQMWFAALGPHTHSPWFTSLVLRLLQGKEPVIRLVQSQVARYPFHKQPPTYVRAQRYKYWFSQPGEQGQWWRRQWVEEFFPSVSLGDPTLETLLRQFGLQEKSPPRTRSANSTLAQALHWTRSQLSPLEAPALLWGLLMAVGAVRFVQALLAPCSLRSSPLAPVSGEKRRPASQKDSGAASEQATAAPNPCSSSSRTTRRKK

Assays:
Experiment in all cases: log2 fold change, soluble protein after heating vs DMSO (PISA); higher = thermal stabilisation; K562 cells, 10 uM, 30 min; active = over 0.2 and 3.5 SD of the protein, either way, in both replicates (recomputed)
[1] = compound: NC(=O)Nc1cc(-c2cccc(F)c2)sc1C(=O)N[C@H]1CCCNC1
How it was run: (§1)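 K562 cells (2×10^6 cells/mL) were treated with 10 μM compound for 30 min, and aliquots were heated for 3 min over 48°C-58°C. Pooled aliquots were extracted in PBS with 0.5% NP-40 at 4°C, and the supernatant after 21,000xg for 90 min was measured by TMTpro 16plex LC-MS/MS with channel sums equalised. Reported thermal stability, relative to control samples and from duplicates, is a log2 fold change.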

[2] = compound: NC(=O)c1cnc(N[C@@H]2CCCC[C@@H]2N)nc1Nc1cccc(-n2nccn2)c1
How it was run: as §1

[3] = compound: NC1(c2ccc(-c3nc4ccn5c(=O)[nH]nc5c4cc3-c3ccccc3)cc2)CCC1
How it was run: as §1

[4] = compound: NCC(=O)Nc1ccc(-n2nc(C(F)(F)F)cc2-c2ccc3c(ccc4ccccc43)c2)cc1
How it was run: as §1

entinostat = compound: Nc1ccccc1NC(=O)c1ccc(CNC(=O)OCc2cccnc2)cc1 [entinostat]
How it was run: as §1

vorinostat = compound: O=C(CCCCCCC(=O)Nc1ccccc1)NO [vorinostat]
How it was run: as §1

citarinostat = compound: O=C(CCCCCCNC(=O)c1cnc(N(c2ccccc2)c2ccccc2Cl)nc1)NO [citarinostat]
How it was run: as §1

silmitasertib = compound: O=C(O)c1ccc2c(c1)nc(Nc1cccc(Cl)c1)c1ccncc12 [silmitasertib]
How it was run: as §1

[5] = compound: O=C1NC(=O)C(c2cnc3ccccn23)=C1c1cn2c3c(cc(F)cc13)CN(C(=O)N1CCCCC1)CC2
How it was run: as §1

[6] = compound: c1cc(OCCN2CCCCC2)cc(-c2n[nH]c3ccc(-c4nnc[nH]4)cc23)c1
How it was run: as §1

entospletinib = compound: c1cn2cc(-c3ccc4cn[nH]c4c3)nc(Nc3ccc(N4CCOCC4)cc3)c2n1 [entospletinib]
How it was run: as §1

| Target | log2 fold change [1] | log2 fold change [2] | log2 fold change [3] | log2 fold change [4] | log2 fold change (entinostat) | log2 fold change (vorinostat) | log2 fold change (citarinostat) | log2 fold change (silmitasertib) | log2 fold change [5] | log2 fold change [6] | log2 fold change (entospletinib) |
| --- | --- | --- | --- | --- | --- | --- | --- | --- | --- | --- | --- |
| LBR (UniProt Q14739) | inactive: 0.025 | inactive: -0.008 | inactive: 0.004 | inactive: -0.003 | inactive: 0.023 | inactive: 0.021 | inactive: -0.021 | inactive: -0.085 | inactive: 0.012 | inactive: 0.082 | – |
| LDB1 (UniProt Q86U70) | inactive: 0.005 | inactive: 0.022 | inactive: 0.005 | inactive: 0.006 | inactive: 0.006 | inactive: -0.004 | inactive: 0.016 | inactive: -0.015 | inactive: 0.043 | inactive: -0.081 | inactive: -0.026 |
| LMNA (UniProt P02545) | inactive: 0.205 | inactive: -0.013 | inactive: 0.024 | inactive: 0.047 | inactive: -0.004 | inactive: -0.026 | inactive: 0.039 | inactive: 0.015 | inactive: -0.075 | inactive: -0.068 | – |
| LMBRD1 (UniProt Q9NUN5) | inactive: 0.006 | inactive: 0.046 | inactive: -0.243 | inactive: -0.162 | inactive: 0.099 | inactive: 0.048 | inactive: 0.048 | inactive: -0.028 | inactive: -0.003 | inactive: 0.049 | – |
| LRIG2 (UniProt O94898) | inactive: -0.067 | inactive: -0.004 | inactive: -0.029 | inactive: -0.011 | inactive: 0.012 | inactive: -0.017 | inactive: -0.029 | inactive: 0.009 | inactive: 0.011 | inactive: 0.009 | inactive: -0.024 |
| LARP4B (UniProt Q92615) | inactive: 0.028 | inactive: -0.042 | inactive: 0.048 | inactive: 0.022 | inactive: 0.038 | inactive: 0.027 | inactive: -0.001 | inactive: 0.008 | inactive: 0.086 | inactive: -0.112 | – |
| LANCL2 (UniProt Q9NS86) | inactive: 0.027 | inactive: 0.032 | inactive: -0.022 | inactive: -0.042 | inactive: -0.02 | inactive: 0.01 | inactive: 0.035 | inactive: 0.001 | inactive: -0.018 | inactive: -0.035 | inactive: -0.054 |
| LDLR (UniProt P01130) | inactive: 0.005 | inactive: 0.093 | inactive: 0.008 | inactive: 0.124 | inactive: 0.057 | inactive: -0.038 | inactive: -0.035 | inactive: 0.074 | inactive: 0.019 | inactive: -0.071 | – |
| L2HGDH (UniProt Q9H9P8) | inactive: -0.035 | inactive: -0.026 | inactive: -0.145 | inactive: 0.007 | inactive: -0.012 | inactive: -0.014 | inactive: 0.029 | inactive: 0.15 | inactive: -0.053 | inactive: 0.029 | – |
| LMNB1 (UniProt P20700) | inactive: 0.094 | inactive: -0.073 | inactive: 0.078 | inactive: -0.018 | inactive: 0.024 | inactive: -0.029 | inactive: 0.033 | inactive: 0.097 | inactive: -0.105 | inactive: -0.072 | – |
| LIAS (UniProt O43766) | inactive: -0.079 | inactive: 0.014 | inactive: -0.035 | inactive: -0.016 | inactive: -0.047 | inactive: -0.17 | inactive: -0.093 | inactive: 0.026 | inactive: 0.062 | inactive: -0.022 | – |
| LARP1 (UniProt Q6PKG0) | inactive: -0.064 | inactive: 0.002 | inactive: 0.051 | inactive: -0.04 | inactive: 0.02 | inactive: 0.043 | inactive: -0.025 | inactive: 0.028 | inactive: 0.113 | inactive: -0.133 | – |
| LGALS1 (UniProt P09382) | inactive: 0.073 | inactive: -0.016 | inactive: -0.018 | inactive: 0.067 | inactive: 0.025 | inactive: 0.001 | inactive: 0.039 | inactive: -0.041 | inactive: -0.065 | inactive: -0.016 | inactive: -0.016 |
| LRIF1 (UniProt Q5T3J3) | inactive: 0.005 | inactive: 0.069 | inactive: 0.125 | inactive: 0.051 | inactive: -0.004 | inactive: -0.056 | inactive: 0.004 | inactive: -0.119 | inactive: 0.011 | inactive: -0.016 | inactive: -0.04 |
| LPIN1 isoform 7 (UniProt Q14693) | inactive: -0.006 | inactive: -0.011 | inactive: -0.039 | inactive: -0.03 | inactive: -0.027 | inactive: 0.136 | inactive: 0.001 | inactive: -0.139 | inactive: -0.098 | inactive: -0.048 | – |
| LPCAT3 (UniProt Q6P1A2) | inactive: -0.074 | inactive: -0.105 | inactive: -0.185 | inactive: -0.229 | inactive: 0.044 | inactive: 0.024 | inactive: 0.087 | inactive: 0.05 | inactive: -0.091 | inactive: 0.072 | – |
| LENG8 (UniProt Q96PV6) | inactive: -0.012 | inactive: -0.075 | inactive: 0.042 | inactive: -0.198 | inactive: 0.085 | inactive: 0.298 | inactive: 0 | inactive: 0.09 | inactive: -0.144 | inactive: -0.091 | – |
| LRPPRC (UniProt P42704) | inactive: -0.249 | inactive: -0.291 | inactive: -0.676 | inactive: -0.272 | inactive: 0.479 | inactive: 0.289 | inactive: 0.203 | inactive: 0.033 | inactive: -0.383 | inactive: -0.128 | – |
| LEO1 (UniProt Q8WVC0) | inactive: 0.003 | inactive: -0.06 | inactive: -0.028 | inactive: -0.11 | inactive: 0.005 | inactive: 0.088 | inactive: 0.009 | inactive: 0.068 | inactive: -0.153 | inactive: -0.055 | – |
| LNPK (UniProt Q9C0E8) | inactive: 0.011 | inactive: 0.01 | inactive: 0.009 | inactive: 0.014 | inactive: -0.013 | inactive: -0.006 | inactive: 0.002 | inactive: 0.072 | inactive: -0.051 | inactive: -0.006 | – |
| LRBA (UniProt P50851) | inactive: 0.002 | inactive: -0.058 | inactive: -0.146 | inactive: -0.039 | inactive: 0.016 | inactive: 0.049 | inactive: 0.034 | inactive: 0.033 | inactive: -0.025 | inactive: -0.026 | – |
| LAMP2 (UniProt P13473) | inactive: -0.013 | inactive: 0.043 | inactive: -0.122 | inactive: 0.055 | inactive: -0.045 | inactive: 0.083 | inactive: 0.158 | inactive: 0.005 | inactive: 0.065 | inactive: -0.11 | – |
| LEMD3 (UniProt Q9Y2U8) | inactive: -0.206 | inactive: -0.029 | inactive: -0.142 | inactive: -0.116 | inactive: -0.017 | inactive: 0.035 | inactive: 0.053 | inactive: -0.068 | inactive: -0.077 | inactive: 0.057 | – |
| LMBRD2 (UniProt Q68DH5) | inactive: 0.028 | inactive: 0.044 | inactive: 0.099 | inactive: -0.025 | inactive: -0.011 | inactive: -0.015 | inactive: 0.057 | inactive: -0.049 | inactive: -0.09 | inactive: -0.005 | – |
| LEPR (UniProt P48357) | inactive: -0.044 | inactive: -0.014 | inactive: -0.009 | inactive: 0.069 | inactive: -0.031 | inactive: 0.002 | inactive: 0.024 | inactive: -0.002 | inactive: -0.011 | inactive: -0.075 | inactive: 0.042 |
| LMNB2 (UniProt Q03252) | inactive: 0.079 | inactive: -0.077 | inactive: 0.068 | inactive: -0.09 | inactive: -0.006 | inactive: -0.047 | inactive: 0.015 | inactive: 0.018 | inactive: -0.101 | inactive: -0.07 | – |
| LDAH isoform 2 (UniProt Q9H6V9) | inactive: -0.049 | inactive: 0.018 | active: 0.979 | inactive: -0.041 | inactive: 0.014 | inactive: -0.011 | inactive: 0.061 | inactive: 0.014 | inactive: -0.16 | inactive: -0.057 | – |
| LEMD2 (UniProt Q8NC56) | inactive: 0.008 | inactive: -0.139 | inactive: -0.112 | inactive: -0.157 | inactive: 0.004 | inactive: 0.04 | inactive: 0.058 | inactive: -0.044 | inactive: -0.02 | inactive: -0.046 | – |
| LMF2 (UniProt Q9BU23) | inactive: -0.008 | inactive: -0.001 | inactive: -0.057 | inactive: -0.089 | inactive: -0.006 | inactive: 0.116 | inactive: -0.068 | inactive: 0.008 | inactive: -0.016 | inactive: 0.046 | – |

A second format for part of the listing above:
Target	log2 fold change [1]	log2 fold change [2]	log2 fold change [3]	log2 fold change [4]	log2 fold change (entinostat)	log2 fold change (vorinostat)	log2 fold change (citarinostat)	log2 fold change (silmitasertib)	log2 fold change [5]	log2 fold change [6]	log2 fold change (entospletinib)
LRPPRC (UniProt P42704)	inactive: -0.249	inactive: -0.291	inactive: -0.676	inactive: -0.272	inactive: 0.479	inactive: 0.289	inactive: 0.203	inactive: 0.033	inactive: -0.383	inactive: -0.128	–
LMBRD2 (UniProt Q68DH5)	inactive: 0.028	inactive: 0.044	inactive: 0.099	inactive: -0.025	inactive: -0.011	inactive: -0.015	inactive: 0.057	inactive: -0.049	inactive: -0.09	inactive: -0.005	–
